Screening data, single-dose tests

Amino acid sequences for entries named in this document (tags omitted). Residues count along the entry.
UniProt Q8IDJ8, 1-583: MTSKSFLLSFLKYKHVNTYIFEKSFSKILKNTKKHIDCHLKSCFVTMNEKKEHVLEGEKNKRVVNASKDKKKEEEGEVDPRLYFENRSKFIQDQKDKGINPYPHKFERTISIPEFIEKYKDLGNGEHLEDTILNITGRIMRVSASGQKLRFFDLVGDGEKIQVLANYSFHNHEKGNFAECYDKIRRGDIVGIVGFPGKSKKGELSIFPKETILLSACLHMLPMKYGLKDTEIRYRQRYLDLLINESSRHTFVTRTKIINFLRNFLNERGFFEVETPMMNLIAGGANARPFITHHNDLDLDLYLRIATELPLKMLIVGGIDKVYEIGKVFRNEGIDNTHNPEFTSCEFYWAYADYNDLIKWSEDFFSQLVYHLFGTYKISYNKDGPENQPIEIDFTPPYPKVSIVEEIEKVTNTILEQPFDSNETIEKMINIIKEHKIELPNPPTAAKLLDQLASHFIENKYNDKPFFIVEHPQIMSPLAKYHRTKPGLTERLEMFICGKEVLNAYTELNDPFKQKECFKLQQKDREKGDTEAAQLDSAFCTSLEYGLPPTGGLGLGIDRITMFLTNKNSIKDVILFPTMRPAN

The values are deposited in ChEMBL (CHEMBL3988442, “University of Dundee, Small-Polar-MMV Screening Library” (2021)).

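Lysine-tRNA ligase, Plasmodium falciparum 3D7 (UniProt Q8IDJ8). Enzyme assay of the cytosolic lysyl-tRNA synthetase in 384-well plates, read by luminescence. Compounds at 30 µM. Direction is inferred from only a few compounds that gave an IC50; most scored high, so higher reads as stronger inhibition. Size under these conditions: about 69,000 compounds, about 49 of them at 50% or above in at least one test.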

The filed quantity is “Percent Effect” (%).
The controls that fix the scale are not given in the record; negative values are as filed.
The compounds are a random part of those screened.

CN(C)CCN1CC[C@@H]2O[C@@H](COCC(=O)N3CCCC3)CC[C@@H]21 read 3.294%. CC(=O)NCCc1cn(-c2cc(F)ccc2C)cn1 read 7.153%. Result for Cc1[nH]ncc1CCCNC(=O)Nc1ccc(S(C)(=O)=O)nc1 was 4.777%. Result for COc1ccccc1N1CCCC(NC(=O)Nc2cccnc2)C1 (configuration not stated) was 5.197%. CN(Cc1ccco1)C1CCC12CCN(C(=O)c1ccncc1)CC2 (configuration not stated) read 4.589%. Result for Cc1nc(CN2CCN(C(=O)C(C(C)C)n3cncn3)CC2)cs1 (configuration not stated) was 2.968%. NC(=O)C1CCN(C(=O)NCc2ccccc2-n2cccn2)CC1 read 1.616%. For COCc1cc(N(C)Cc2ccccn2)nc(C(C)(C)C)n1 the result was 3.336%.

With CS(=O)(=O)CCC(=O)N1C[C@@H]2CC[C@H](C1)N(Cc1ccccn1)C2=O the screen gave -1.346%. CN1CCN(C(=O)CCn2c(C(F)(F)F)cc3cccnc32)CC1 gave -0.5914%. Result for CC(C)[C@H](C)NC1CCN(c2ccc(-c3cscn3)cc2)CC1 was -0.7532%. COc1ccc2[nH]cc(CCNC(=O)C3CCCN(C(C)=O)C3)c2c1 (configuration not stated) gave 5.955%. With COCCNc1nc(C)nc2c1CCN(C[C@H]1CC[C@@H](N)CC1)CC2 the screen gave -3.739%. COc1ccccc1C(=O)NCC(c1cccn1C)N1CCOCC1 (configuration not stated) read 2.066%. NC1CCN(C2CCN(c3ccc(-c4ccco4)cc3)CC2)CC1 gave 0.6215%.

For reference, 2 entries once more:

* CS(=O)(=O)CCC(=O)N1C[C@@H]2CC[C@H](C1)N(Cc1ccccn1)C2=O | -1.346%
* NC1CCN(C2CCN(c3ccc(-c4ccco4)cc3)CC2)CC1 | 0.6215%